No constants are given. Whether binding was seen depends on the method and setting. For some assays here: Binding seen in cells or lysates may run through a third protein. Some results given as binding are weak or reduced against the parent protein; the word gives no strength.
Tests used:
[1] = target: Prp19 (CG5519) (Drosophila melanogaster (endogenous in embryos and ovaries)) (UniProt Q7KLW9); experiment: SEC; 2 mg protein extract of 0-3 hr control (FRT42B) embryos on Superose 6 10/300 GL in NB2 buffer (150 mM NaCl, 50 mM Tris-HCl pH 7,5, 2 mM EDTA, 0,01% NP-40, 1 mM DTT); fractions analysed by Western blot
[2] = target: Prp19 (CG5519) (Drosophila melanogaster (endogenous in embryos and ovaries)) (UniProt Q7KLW9); experiment: co-IP; nuclear protein extracts of 0-3 hr wild-type (Oregon-R) embryos; 1 mg extract with rabbit anti-Prp19 (pre-immune serum as control) in HNEB2 buffer (100 mM NaCl, 2,5 mM MgCl2, 10 mM Tris-HCl pH 7,5, 0,5% Triton X-100), 1 hr at 4°C; Dynabeads Protein G; Western blot

Chains of the proteins cited; added tags and fusions are not shown.
UniProt Q7KLW9: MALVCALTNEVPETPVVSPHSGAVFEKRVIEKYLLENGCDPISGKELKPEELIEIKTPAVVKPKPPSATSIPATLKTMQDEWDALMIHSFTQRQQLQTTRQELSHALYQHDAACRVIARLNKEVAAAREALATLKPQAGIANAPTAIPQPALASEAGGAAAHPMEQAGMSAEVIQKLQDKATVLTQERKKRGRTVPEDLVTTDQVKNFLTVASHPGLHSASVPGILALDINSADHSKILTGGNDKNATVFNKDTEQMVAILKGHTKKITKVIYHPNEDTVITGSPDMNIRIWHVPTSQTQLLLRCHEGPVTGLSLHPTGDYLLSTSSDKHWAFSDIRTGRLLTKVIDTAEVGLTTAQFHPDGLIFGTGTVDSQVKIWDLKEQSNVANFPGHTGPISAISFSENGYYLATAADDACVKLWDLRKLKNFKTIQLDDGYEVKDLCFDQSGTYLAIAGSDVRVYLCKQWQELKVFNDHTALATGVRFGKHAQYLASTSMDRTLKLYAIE

B1: Fandango (CG6197) (protein, UniProt A1Z9G2 1-883)
chain: MVTKTIKSLNLEINFEVEDVPYEEEILRNAYSVKHWLRYIDHKAKAPNNGVNMVYERALKELPGSYKIWHNYLRTRRKQVRGKIPTDPMYEEVNSAFERALVFMHKMPRIWMDYGAFMTSQCKITRTRHVFDRALRALPITQHGRIWPLYLQFVRRFEMPETALRVYRRYLKLFPEDTEEYVDYLQEADRLDEAAQQLAHIVDNEHFVSKHGKSNHQLWNELCDLISKNPHKVHSLNVDAIIRGGLRRYTDQLGHLWNSLADYYVRSGLFDRARDIYEEAIQTVTTVRDFTQVFDEYAQFEELSLNRRMEQVAANEAATEEDDIDVELRLSRFEYLMERRLLLLNSVLLRQNPHNVHEWHKRVTLYEDKPAEIISTYTEAVQTVQPKQAVGKLHTLWVEFAKFYEANGQVEDARVVFERGTEVEYVKVEDLAAVWCEWAEMELRQQQFEAALKLMQRATAMPKRKIAYYDDTETVQARLHRSLKVWSMYADLEESFGTFKTCKAVYERIIDLKICTPQIIINYGMFLEEHNYFEEAYRAYEKGISLFKWPNVYDIWNSYLTKFLERYGGTKLERARDLFEQCLDQCPPEHAKYFYLLYAKLEEEHGLARHAMSVYDRATSAVKEDEMFDMYNIFIKKAAEIYGLPRTREIYEKAIESLPEQNMRHMCVKFAELETKLGEVDRARAIYAHCSQVCDPRITADFWQTWKEFEVRHGNEDTMREMLRIKRSVQATYNTQVNMMAAQFLSTNNGAAADAGAGAGPDAMRLLEEKARQAAAESKQKPIEKAASNIMFVRGETQGGAKDKKDTVVNPDEIDIGDSDEDDEEEDDDEENEMTNENQASAAVTKTDEEGLVMKKLRFEQKAIPAKVFGSLKPSNQGDSDGE
In the case of B1, the binding [1] is reported as “binds” and the binding [2] is reported as “binds”.

Source: PMC3989599
